The amount applied is not stated for every result. Positions of bridges follow the written chain, without caps; N, C: chain ends. No end group written: not given here.
Tests used:
RD cells = assay: phage-displayed cyclic peptide library in vitro panning; format: cell-based; settings: phage panning on RD cells, five rounds; 40 phages from each in vitro screening sequenced
RMS xenografts (Rh4) = assay: in vivo phage selection; parameters: species or system mouse; settings: two rounds of in vivo selection; 30 phages sequenced

| Sequence | Frequency in both selections in vitro (count of sequenced phages) (RD cells) | Frequency in selection in vivo (count of sequenced phages) (RMS xenografts (Rh4)) |
| --- | --- | --- |
| CMGTINTRTKKC (disulfide 1-12 (inferred)) [RMS-P3] | 14/80 | – |
| CMGTTNTRTKKC (disulfide 1-12 (inferred)) [RMS-P6] | 34/80 | – |
| CGTGSRARRSC (disulfide 1-11 (inferred)) [RMS-P7] | 7/80 | 3/30 |
| CLTGRQRRSSQC (disulfide 1-12 (inferred)) [RMS-P10] | 4/80 | 2/30 |
| CRTGRQRRSSEC (disulfide 1-12 (inferred)) [RMS-P8] | 3/80 | 2/30 |
| CSGPNVRSRRC (disulfide 1-11 (inferred)) [RMS-P9] | 3/80 | 2/30 |

— PMC2862740, “Furin Targeted Drug Delivery for Treatment of Rhabdomyosarcoma in a Mouse Model” (PLoS ONE, 2010)
